Data taken from article PMC3899330.
No constants are given. Whether binding was seen depends on the method and setting. Some results given as binding are weak or reduced against the parent protein; the word gives no strength. Each block holds one binder with its values, some of them ahead of it.

Target: T1, ROL5, Arabidopsis thiouridylase (Arabidopsis thaliana) (UniProt O64862)
T1 sequence: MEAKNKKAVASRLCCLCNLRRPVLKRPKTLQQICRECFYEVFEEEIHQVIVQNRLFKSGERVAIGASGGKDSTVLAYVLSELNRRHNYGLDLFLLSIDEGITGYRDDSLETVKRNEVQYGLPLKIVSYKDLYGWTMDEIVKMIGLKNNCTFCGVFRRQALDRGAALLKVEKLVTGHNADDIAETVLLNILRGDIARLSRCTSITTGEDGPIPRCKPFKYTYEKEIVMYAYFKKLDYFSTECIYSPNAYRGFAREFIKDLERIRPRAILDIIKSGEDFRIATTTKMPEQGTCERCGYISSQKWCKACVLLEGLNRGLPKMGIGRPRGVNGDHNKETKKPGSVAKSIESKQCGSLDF
Assay: two-hybrid; ROL5 as bait (pLEXA-N), URM11 or URM12 as prey (pGAD-HA); growth on selective medium and reporter staining (beta-galactosidase in the legend, GUS in the text); performed three times independently; empty-vector controls showed no autoactivation

- binding: binds
B1: URM12, ubiquitin-related modifier of Arabidopsis thaliana (protein, UniProt B3H7G2 1-99)
chain: MQFTLEFGGGLELLCDSVKIHKVNINLLNDSDILTMKDLLSWVRTNLIKERPEMFMKGDTVRPGVLVLVNDCDWELSGQLDTTLEDKDVIVFISTLHGG

- binding: binds
B2: URM11, ubiquitin-related modifier of Arabidopsis thaliana (protein, UniProt A0MDQ1 1-101)
chain: MQLTLEFGGGLELLCDSEKIHKVNVDLPNGADSDDFTMKHLLSWVRTNLIKERPEMFMKGDTVRPGVLVLVNDCDWELSGQLDTVIEDKDVVVFISTLHGG
